This assay can be described thus: qHTS Assay for Lipid Storage Modulators in Drosophila S3 Cells.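 For cell number change: cells counted by Cell Tracker Red CMTPX staining in the red channel.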 The note with it: BODIPY lipid droplet fluorescence, 18-24 h; for cell number change: measured here: cell count max response, cells fed with added oleic acid. In outline: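 Drosophila S3 cells got compounds at several concentrations plus oleic acid (400 uM solution). Laser-scanning cytometry with 488 nm excitation read lipid droplets at 500-530 nm and cells at 575-640 nm. Percent activity was relative to 20 uM Triacsin C.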
A general note: Quantitative high-throughput screening tests each substance at several concentrations.

Where [1] appears, read: measured here: cell number channel AC50, cells fed with added oleic acid.
The mark [2] stands for this setting: measured here: lipid fluorescence (Fed channel) AC50, cells fed with added oleic acid.

The list shows a part of the results. These are further read-outs of the screen, such as a control signal, another cell line or another target. No call is given for them. Compounds called inactive in the main read-out are mostly missing here. Potencies come from curve fits of mixed quality, noted in brackets.

By AC50 is commonly meant the concentration giving half of the maximal activity seen.

In the case of `COc1cc(/C=N/NC(N)=O)ccc1OC(=O)c1ccco1`, the AC50 under setting [1] was 7.31 µM [falling, single point].
Take `CCC(C(=O)NC1CCN(C)CC1)c1ccccc1` (stereo unspecified): the cell number change was -11.9%. In addition, the AC50 under setting [2] is 29.1 µM [rising, single point].
As to `CN(c1ncc(C(F)(F)F)cc1Cl)N1C(=O)C2ONC3(C(=O)CC(C)(C)CC3=O)C2C1=O` (stereo unspecified), the cell number change amounted to 48.7%. Further, the AC50 under setting [1] was 0.184 µM [rising, full curve].
On to `COc1cc(C(=O)NC(=S)NNC(=O)c2ccc3c(c2)OCO3)cc(OC)c1OC`, for which the cell number change amounted to 7.88%.
`COCCn1nnnc1C(C(C)C)N1CCC(Cc2ccccc2)CC1` (stereo unspecified): the cell number change came to 8.1%. Moreover, the AC50 under setting [2] is 10.3 µM [rising, partial curve].
On to `Cc1cc(C)c(CN2CCC(n3nccc3NC(=O)C3CCCC3)CC2)cc1C`, for which the cell number change was determined as 30.9%. Besides, under setting [2], the AC50 was 7.31 µM [rising, partial curve].
For `COC(=O)c1cn(-c2cccc(C)n2)cn1`, the cell number change is -34.8%. Moreover, under setting [1], the AC50 is 2.31 µM [falling, partial curve, poor fit]. The AC50 under setting [2] is 0.206 µM [falling, full curve].
On to `COc1ccc(-c2cc(C(=O)OC3CCOC3=O)c3ccccc3n2)cc1` (stereo unspecified), for which the cell number change was 49.8%. Besides, the AC50 under setting [1] was 9.2 µM [rising, partial curve, poor fit].
As to `Cc1ccc(C)c(NC(=O)CN(C)C(=O)[C@@H](NC(N)=O)C(C)C)c1`, the cell number change stood at 49.9%. The half-maximal activity concentration (AC50) under setting [1] is 29.1 µM [rising, single point].
On to `COc1cccc(N2CCN(Cc3nc(N)nc(Nc4ccccc4OC)n3)CC2)c1`, for which the AC50 under setting [1] was 2.06 µM [rising, partial curve].
As to `CC(=O)c1cccc(NC(=S)NC(=O)c2cccc(Cl)c2)c1`, the AC50 under setting [2] was 10.3 µM [rising, partial curve].
For `C=CCn1c(-c2csc(-c3ccccc3)n2)n[nH]c1=S`, the AC50 under setting [2] is 0.58 µM [rising, full curve, poor fit].
Take `CC1(C)CC(=O)c2c(-c3cccnc3)n[nH]c2C1`: the cell number change amounted to 2%. The AC50 under setting [2] is 0.92 µM [falling, full curve].
`O=C(Nc1cccc2nsnc12)c1cccnc1Cl`: the cell number change is -33.3%. Under setting [1], the AC50 is 29.1 µM [falling, single point].
As to `Cc1nnc(SCC(=O)Nc2nonc2C)s1`, the cell number change was 0.952%.
Regarding `Cc1cc(C)c(NC(=O)CN2C(=O)NC3(CCCCC3)C2=O)c(C)c1`, the cell number change was 3.28%. Further, under setting [1], the AC50 was 6.51 µM [rising, single point]. For the same compound, the AC50 under setting [2] is 29.1 µM [rising, single point].
Turning to `O=C(CSC1=NCCS1)Nc1ccc(S(=O)(=O)N2CCCCCC2)cc1`, the cell number change was -11.6%.
In the case of `Cc1nc2ccccc2c(=O)n1/N=C/c1ccc(O)cc1O`, the cell number change was -7.64%. Also, the AC50 under setting [2] is 1.84 µM [falling, partial curve].

These data come from PubChem BioAssay AID2685 (National Center for Advancing Translational Sciences (NCATS), 2010).
